In assay [1] the target is programmed death ligand 1 (PD-L1), endogenous in PC9ER cells (human (endogenous in PC9ER)) (UniProt Q9NZQ7). Kind of assay: co-IP; extracts of PC9ER cells precipitated with a control antibody or an antibody to PD-L1, blots for PLC-γ1, FLNA and PD-L1; mild lysis buffer (50 mM HEPES pH 7.5, 150 mM NaCl, 1% Triton X-100), 2 h at 4°C.
Assay [2] addresses PD-L1-6aaDel (UniProt Q9NZQ7). The experiment in a line: co-IP; HEK293 cells transfected with PD-L1 (full length), PD-L1-6aaDel or PD-L1-16aaDel; IP and IB, blots for PLC-γ1, PD-L1 and GAPDH.
Assay [3] addresses PD-L1 (full length), expressed in HEK293 cells (UniProt Q9NZQ7). Described as above.
The target in assay [4] is PD-L1, transiently overexpressed in PC9ER cells (proximity ligation assay) (UniProt Q9NZQ7). Kind of assay: proximity ligation; PC9ER cells transiently overexpressing PD-L1 and PLC-γ1, fixed, permeabilised, antibodies to PD-L1 and PLC-γ1, Duolink red; also with prestimulation by EGF (Figure S7B).

Amino acid sequences for entries named in this document (tags omitted). A change or cut given only in a name is not applied to a line headed by its entry. Residues count along the entry.
UniProt Q9NZQ7: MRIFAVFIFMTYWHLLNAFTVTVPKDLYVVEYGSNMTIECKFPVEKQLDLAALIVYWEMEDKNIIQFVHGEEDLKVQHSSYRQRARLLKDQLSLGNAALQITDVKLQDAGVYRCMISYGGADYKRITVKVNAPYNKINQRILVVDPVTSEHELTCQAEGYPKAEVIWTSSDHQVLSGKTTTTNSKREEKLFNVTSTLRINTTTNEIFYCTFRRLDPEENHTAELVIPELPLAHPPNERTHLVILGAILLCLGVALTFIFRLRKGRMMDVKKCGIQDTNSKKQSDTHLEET
PD-L1, transiently overexpressed in PC9ER cells (proximity ligation assay): residues 19-290 of Q9NZQ7
PD-L1-6aaDel: residues 19-284 of Q9NZQ7
UniProt P21333: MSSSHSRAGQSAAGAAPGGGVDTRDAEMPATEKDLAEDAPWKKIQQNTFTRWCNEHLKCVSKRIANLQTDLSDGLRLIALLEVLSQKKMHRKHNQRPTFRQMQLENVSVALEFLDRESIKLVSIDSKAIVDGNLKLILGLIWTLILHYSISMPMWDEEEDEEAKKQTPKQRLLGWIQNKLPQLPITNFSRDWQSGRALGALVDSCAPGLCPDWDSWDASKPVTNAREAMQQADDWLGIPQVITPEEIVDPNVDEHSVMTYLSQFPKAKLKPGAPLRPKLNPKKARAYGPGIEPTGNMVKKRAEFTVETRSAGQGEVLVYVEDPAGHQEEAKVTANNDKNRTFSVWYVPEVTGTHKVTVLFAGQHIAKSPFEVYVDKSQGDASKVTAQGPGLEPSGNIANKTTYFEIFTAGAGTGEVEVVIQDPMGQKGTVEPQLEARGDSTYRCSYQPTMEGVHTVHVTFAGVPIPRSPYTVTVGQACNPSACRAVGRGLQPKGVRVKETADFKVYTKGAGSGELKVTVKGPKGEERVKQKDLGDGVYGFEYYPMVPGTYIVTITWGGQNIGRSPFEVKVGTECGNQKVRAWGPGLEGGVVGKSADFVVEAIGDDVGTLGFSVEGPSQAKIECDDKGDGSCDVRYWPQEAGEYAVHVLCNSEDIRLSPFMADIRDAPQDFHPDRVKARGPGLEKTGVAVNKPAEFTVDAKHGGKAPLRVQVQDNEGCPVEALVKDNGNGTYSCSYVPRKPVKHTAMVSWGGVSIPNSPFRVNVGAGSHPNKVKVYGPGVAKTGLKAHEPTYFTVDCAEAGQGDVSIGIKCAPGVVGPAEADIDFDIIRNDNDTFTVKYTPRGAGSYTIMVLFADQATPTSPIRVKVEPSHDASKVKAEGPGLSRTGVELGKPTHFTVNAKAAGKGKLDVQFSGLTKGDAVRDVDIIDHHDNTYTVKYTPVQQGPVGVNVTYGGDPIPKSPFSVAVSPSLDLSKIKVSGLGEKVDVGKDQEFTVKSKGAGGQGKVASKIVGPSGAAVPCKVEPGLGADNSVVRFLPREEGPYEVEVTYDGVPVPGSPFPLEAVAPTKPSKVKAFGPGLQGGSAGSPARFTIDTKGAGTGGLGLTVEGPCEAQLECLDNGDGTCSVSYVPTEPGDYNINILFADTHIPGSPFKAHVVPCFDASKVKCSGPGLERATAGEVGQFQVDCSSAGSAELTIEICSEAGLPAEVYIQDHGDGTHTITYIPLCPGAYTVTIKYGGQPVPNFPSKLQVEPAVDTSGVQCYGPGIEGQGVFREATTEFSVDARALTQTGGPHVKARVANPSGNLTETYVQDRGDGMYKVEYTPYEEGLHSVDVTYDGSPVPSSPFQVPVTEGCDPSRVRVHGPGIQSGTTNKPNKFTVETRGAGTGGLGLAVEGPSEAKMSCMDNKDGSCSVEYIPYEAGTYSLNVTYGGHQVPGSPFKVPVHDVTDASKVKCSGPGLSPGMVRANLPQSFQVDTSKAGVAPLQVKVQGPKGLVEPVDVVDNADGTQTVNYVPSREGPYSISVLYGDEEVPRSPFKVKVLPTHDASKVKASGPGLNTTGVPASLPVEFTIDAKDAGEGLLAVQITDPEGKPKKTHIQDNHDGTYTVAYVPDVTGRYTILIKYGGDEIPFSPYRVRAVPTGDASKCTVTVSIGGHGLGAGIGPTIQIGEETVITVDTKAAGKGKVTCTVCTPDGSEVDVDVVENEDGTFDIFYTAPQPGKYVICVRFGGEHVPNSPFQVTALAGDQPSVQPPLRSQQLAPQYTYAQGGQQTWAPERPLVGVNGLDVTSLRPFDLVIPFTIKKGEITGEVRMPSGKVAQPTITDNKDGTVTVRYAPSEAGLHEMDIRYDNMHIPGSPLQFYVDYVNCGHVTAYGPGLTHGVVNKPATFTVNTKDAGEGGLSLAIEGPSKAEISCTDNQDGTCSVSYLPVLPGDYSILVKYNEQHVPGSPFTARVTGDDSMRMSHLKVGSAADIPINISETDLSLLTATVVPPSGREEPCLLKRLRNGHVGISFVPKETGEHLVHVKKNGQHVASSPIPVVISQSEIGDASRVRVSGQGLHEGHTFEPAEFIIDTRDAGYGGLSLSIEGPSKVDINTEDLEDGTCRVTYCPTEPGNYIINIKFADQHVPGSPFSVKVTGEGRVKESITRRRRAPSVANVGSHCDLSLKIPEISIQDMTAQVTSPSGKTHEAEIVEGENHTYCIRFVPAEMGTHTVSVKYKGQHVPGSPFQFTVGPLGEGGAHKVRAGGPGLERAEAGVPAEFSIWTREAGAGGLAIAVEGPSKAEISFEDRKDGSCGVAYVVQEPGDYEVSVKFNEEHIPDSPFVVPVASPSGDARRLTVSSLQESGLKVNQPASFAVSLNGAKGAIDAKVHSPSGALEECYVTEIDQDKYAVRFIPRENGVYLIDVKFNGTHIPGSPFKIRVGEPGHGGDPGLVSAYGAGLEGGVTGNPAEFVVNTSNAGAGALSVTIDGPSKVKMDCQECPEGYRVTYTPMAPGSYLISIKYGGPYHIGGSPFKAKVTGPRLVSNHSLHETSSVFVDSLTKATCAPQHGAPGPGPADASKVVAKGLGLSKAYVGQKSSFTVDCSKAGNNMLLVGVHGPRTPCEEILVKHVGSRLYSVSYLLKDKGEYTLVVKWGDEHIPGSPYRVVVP

Results are given in words; binding and its absence hold for the method and conditions named. In cells and extracts the contact can be indirect. Some results given as binding are weak or reduced against the parent protein; the word gives no strength.

With “Filamin A (FLNA), endogenous in PC9ER cells (from UniProt P21333 1-2647)”, the binding entry in assay [1] is recorded as “binds”.

B1: phospholipase C-γ1 (PLC-γ1), in cell extracts (enzyme, UniProt P19174 1-1290)
chain: MAGAASPCANGCGPGAPSDAEVLHLCRSLEVGTVMTLFYSKKSQRPERKTFQVKLETRQITWSRGADKIEGAIDIREIKEIRPGKTSRDFDRYQEDPAFRPDQSHCFVILYGMEFRLKTLSLQATSEDEVNMWIKGLTWLMEDTLQAPTPLQIERWLRKQFYSVDRNREDRISAKDLKNMLSQVNYRVPNMRFLRERLTDLEQRSGDITYGQFAQLYRSLMYSAQKTMDLPFLEASTLRAGERPELCRVSLPEFQQFLLDYQGELWAVDRLQVQEFMLSFLRDPLREIEEPYFFLDEFVTFLFSKENSVWNSQLDAVCPDTMNNPLSHYWISSSHNTYLTGDQFSSESSLEAYARCLRMGCRCIELDCWDGPDGMPVIYHGHTLTTKIKFSDVLHTIKEHAFVASEYPVILSIEDHCSIAQQRNMAQYFKKVLGDTLLTKPVEISADGLPSPNQLKRKILIKHKKLAEGSAYEEVPTSMMYSENDISNSIKNGILYLEDPVNHEWYPHYFVLTSSKIYYSEETSSDQGNEDEEEPKEVSSSTELHSNEKWFHGKLGAGRDGRHIAERLLTEYCIETGAPDGSFLVRESETFVGDYTLSFWRNGKVQHCRIHSRQDAGTPKFFLTDNLVFDSLYDLITHYQQVPLRCNEFEMRLSEPVPQTNAHESKEWYHASLTRAQAEHMLMRVPRDGAFLVRKRNEPNSYAISFRAEGKIKHCRVQQEGQTVMLGNSEFDSLVDLISYYEKHPLYRKMKLRYPINEEALEKIGTAEPDYGALYEGRNPGFYVEANPMPTFKCAVKALFDYKAQREDELTFIKSAIIQNVEKQEGGWWRGDYGGKKQLWFPSNYVEEMVNPVALEPEREHLDENSPLGDLLRGVLDVPACQIAIRPEGKNNRLFVFSISMASVAHWSLDVAADSQEELQDWVKKIREVAQTADARLTEGKIMERRKKIALELSELVVYCRPVPFDEEKIGTERACYRDMSSFPETKAEKYVNKAKGKKFLQYNRLQLSRIYPKGQRLDSSNYDPLPMWICGSQLVALNFQTPDKPMQMNQALFMTGRHCGYVLQPSTMRDEAFDPFDKSSLRGLEPCAISIEVLGARHLPKNGRGIVCPFVEIEVAGAEYDSTKQKTEFVVDNGLNPVWPAKPFHFQISNPEFAFLRFVVYEEDMFSDQNFLAQATFPVKGLKTGYRAVPLKNNYSEDLELASLLIKIDIFPAKENGDLSPFSGTSLRERGSDASGQLFHGRAREGSFESRYQQPFEDFRISQEHLADHFDSRERRAPRRTRVNGDNRL
In the case of B1, the binding entry in assay [1], in assay [2] and in assay [3] was “binds” each time.

B2: PLC-γ1, transiently overexpressed in PC9ER cells (proximity ligation assay) (enzyme, UniProt P19174 1-1290)
chain: MAGAASPCANGCGPGAPSDAEVLHLCRSLEVGTVMTLFYSKKSQRPERKTFQVKLETRQITWSRGADKIEGAIDIREIKEIRPGKTSRDFDRYQEDPAFRPDQSHCFVILYGMEFRLKTLSLQATSEDEVNMWIKGLTWLMEDTLQAPTPLQIERWLRKQFYSVDRNREDRISAKDLKNMLSQVNYRVPNMRFLRERLTDLEQRSGDITYGQFAQLYRSLMYSAQKTMDLPFLEASTLRAGERPELCRVSLPEFQQFLLDYQGELWAVDRLQVQEFMLSFLRDPLREIEEPYFFLDEFVTFLFSKENSVWNSQLDAVCPDTMNNPLSHYWISSSHNTYLTGDQFSSESSLEAYARCLRMGCRCIELDCWDGPDGMPVIYHGHTLTTKIKFSDVLHTIKEHAFVASEYPVILSIEDHCSIAQQRNMAQYFKKVLGDTLLTKPVEISADGLPSPNQLKRKILIKHKKLAEGSAYEEVPTSMMYSENDISNSIKNGILYLEDPVNHEWYPHYFVLTSSKIYYSEETSSDQGNEDEEEPKEVSSSTELHSNEKWFHGKLGAGRDGRHIAERLLTEYCIETGAPDGSFLVRESETFVGDYTLSFWRNGKVQHCRIHSRQDAGTPKFFLTDNLVFDSLYDLITHYQQVPLRCNEFEMRLSEPVPQTNAHESKEWYHASLTRAQAEHMLMRVPRDGAFLVRKRNEPNSYAISFRAEGKIKHCRVQQEGQTVMLGNSEFDSLVDLISYYEKHPLYRKMKLRYPINEEALEKIGTAEPDYGALYEGRNPGFYVEANPMPTFKCAVKALFDYKAQREDELTFIKSAIIQNVEKQEGGWWRGDYGGKKQLWFPSNYVEEMVNPVALEPEREHLDENSPLGDLLRGVLDVPACQIAIRPEGKNNRLFVFSISMASVAHWSLDVAADSQEELQDWVKKIREVAQTADARLTEGKIMERRKKIALELSELVVYCRPVPFDEEKIGTERACYRDMSSFPETKAEKYVNKAKGKKFLQYNRLQLSRIYPKGQRLDSSNYDPLPMWICGSQLVALNFQTPDKPMQMNQALFMTGRHCGYVLQPSTMRDEAFDPFDKSSLRGLEPCAISIEVLGARHLPKNGRGIVCPFVEIEVAGAEYDSTKQKTEFVVDNGLNPVWPAKPFHFQISNPEFAFLRFVVYEEDMFSDQNFLAQATFPVKGLKTGYRAVPLKNNYSEDLELASLLIKIDIFPAKENGDLSPFSGTSLRERGSDASGQLFHGRAREGSFESRYQQPFEDFRISQEHLADHFDSRERRAPRRTRVNGDNRL
B2: in assay [4], the binding entry is reported as “binds”.

The values are drawn from publication PMC8170369.
